PubChem BioAssay AID1347426 (Functional Genomics Laboratory (NCATS/FGL), 2020)
The campaign covered roughly 31,000 sequences. About 1,400 (4.5%) were called active.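 Rule for the calls: active = median seed-adjusted z-score above 1 or below -1; inactive = the rest.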 This is one part of the list.

assay: Novel Modifiers of Survival Motor Neuron (SMN) Protein: Gene Identification via Genome-wide siRNA Screen; conditions: HEK293T SMN2-luciferase reporter, siRNA knockdown, 72 h; actives lie on both sides;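 note: luminescence tracks full-length SMN protein made from the SMN2 reporter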
How it was run: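 Genome-wide siRNA screen (10418 genes, 3 siRNAs each, 1 pmol per well) by reverse transfection in HEK293T cells stably carrying an SMN2-luciferase reporter; luminescence after 72 hours, normalized to negative-control siRNA, log10-transformed, MAD-scored.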

Sequence | median seed-adjusted z-score
AAGGGAAAGUGUACUGGUATT against MMP23B | inactive: 0.288
AUUCAUUACUAAGGACAAATT against HOXA13 | inactive: -0.136
AAAAGAACGAGGAAGUUAUTT against CACNG2 | inactive: 0.00759
AGGUCAAUGUGACUUUCCATT against KCNJ10 | inactive: -0.0371
GGAACAACAGGAUUGAGUATT against CLSTN1 | inactive: 0.0811
GAAUAUCUAGGUACAUGGATT against ADCY10 | inactive: -0.573
GCUUCAGAGUCAACGGACATT against MICB | inactive: 0.162
GAGAAGGCCUAUUCAGACATT against ZBTB7C | inactive: 0.447
GCUUCUCGGCUGUCCAUGATT against CLCNKB | inactive: 0.428
GGAAUAGUGCUGCCGCUAATT against IREB2 | inactive: 0
UCAAAUACCUAAUCACUAATT against SLC25A28 | inactive: -0.459
CUAACGUACCUAACCUAUUTT against CHD7 | inactive: 0.138
GGAAUUUCACCGUAAAUCATT against IFIT5 | inactive: 0
CCAAUGCAGAGAACCGAAATT against CACHD1 | inactive: 0.119
UGCUACAGAUUAUACCUUUTT against CCND3 | inactive: -0.965
GUGGUGGUUUGGAUAAUAATT against GNB5 | inactive: -0.535
UCAAAGCACCGUUAACGAATT against CRP | inactive: -0.212
ACAUCAACACGAACCAUGATT against DNM2 | inactive: 0.00254
GCAUACAAGGCACCACGUUTT against ZDHHC6 | inactive: 0.199
CCAGGUUUGUGGUCCUAUUTT against MAN2A2 | inactive: -0.0938
GGACCGAACUUUCCACUGUTT against ZNF385A | inactive: -0.968
GGAGAUUUUUGGAUGUUUUTT against ACOX3 | inactive: 0.658
GCACCGAUGUAGAUUAUGATT against SEL1L | inactive: 0.438
GGAAGUUUUGGGACAAUAUTT against PCDHB3 | inactive: 0.304
CGGCUCCAUUAACAUCUAUTT against ENC1 | inactive: -0.132
GGAGUGGACAGUGCAAUGATT against EGFL7 | inactive: 0.8
UCACGCUCCUGGACCAUUUTT against SLC6A3 | inactive: 0.457

Sequence | median seed-adjusted z-score
AGCUCAUGUUGCUACAGCATT against SLC30A8 | inactive: -0.767
GCAAGUUAUUGUAUCUUGATT against SAT1 | inactive: -0.00791
GGCUCAAAUUCUCAGCUGATT against ATF6 | inactive: 0.26
GCAUAGAUGUGGAUAGCUUTT against CFTR | active: -1.23
GGUUUGUCGUCAGUCCCUUTT against ELOVL5 | inactive: -0.734
GCAGAAAUGACACCAAUAATT against NMB | inactive: 0.746
CGGUGACCAUAGUACAACATT against FOXK2 | inactive: -0.348
GGCCUGGAAUGAACUGAAATT against MUSK | inactive: 0.138
GAAUUGGAGAGCACCAAUATT against POLR2B | active: -4.81
AGUGAACUCCGGUCCUGCATT against RAB11FIP3 | inactive: 0.0361
GCCUACUUCUUGUGCAUCUTT against ZDHHC22 | inactive: 0.00446
CCUUGAUUCUGAUUACCAATT against ENDOD1 | inactive: -0.138
CUGGAGCUCCCUAAAUAAATT against ETHE1 | inactive: 0
GCAAAAGGAUGUUUCCUGUTT against TXNDC8 | inactive: -0.281
GACAUUCCACCGUACCCUATT against RICS | inactive: 0.665
CCAAAACAGUGGAGAGAGATT against BIN3 | inactive: 0.16
GAAGCUGAUUGAAUACUAUTT against GNPDA1 | inactive: 0.0252
GAAUCUACAUCGUCAGAUATT against UTX | inactive: 0.157
GCACCAUUGCAAGUAACUATT against RFC3 | inactive: 0.733
CCAUUGACCAGAUCCAUAATT against EIF4G1 | inactive: -0.978
GGACAUUGUUCUCCCAGAUTT against CYP4F12 | inactive: -0.564
GAGUCUUUAUUGGUAAAGATT against GLRX | inactive: -0.0561
GAGCUGCAACUGACAUCUUTT against PLTP | active: 1.09
GUAAUGGACUUGUAGAUAUTT against FSTL5 | inactive: -0.881
GGUUCCUUAUUAUAGUCCATT against GPR63 | inactive: -0.0154
GAGUCAACCCAUACAUUAATT against PLS1 | inactive: -0.0715
UCAUCGAACUGAAUACCAATT against STARD3 | inactive: -0.314

Some of the entries above in another layout.
Sequence	median seed-adjusted z-score
GAAUAUCUAGGUACAUGGATT against ADCY10	inactive: -0.573
GCUUCAGAGUCAACGGACATT against MICB	inactive: 0.162
GAGAAGGCCUAUUCAGACATT against ZBTB7C	inactive: 0.447
